# Experiment: general procedure: Fmoc solid-phase peptide synthesis; chlorotrityl resin; DIC/Oxyma
# Settings: for final HPLC purity: 220 nm
Substance,final HPLC purity (whole synthesis) [% purity],conjugation yield (conjugation step) [% yield],final HPLC purity (conjugation step) [% purity]
N3-PEG4-Val-Cit-Gly-Pro,91,–,–
N3-PEG4-Val-Cit-Gly-Pro-Cry-55gly,–,79,97
N3-PEG4-Val-Cit-Gly-Pro-Cy5.5,–,98,>99
N3-PEG4-Val-Cit-Pro-Gly,>99,–,–
N3-PEG4-Val-Cit-Pro-Gly-Cry-55gly,–,54,>99
